Structures can show the parent of a compound that is named as a salt. The list shows a part of the results. Single values are uncertain, as repeats are few or missing.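 The strains were three CDC resistance-bank clinical C. auris isolates from clades III, IV and I, cultured in RPMI-1640 at 35°C. Growth was background-corrected OD600 versus vehicle-only wells on the same plate. A hit needed >50% inhibition in two or more strains plus a plate-corrected B-score exceeding 0.1.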
Tests used:
Assay in all cases: growth relative to vehicle control (OD600 ratio) (fraction); higher = less inhibition
Conditions in all cases: 24 h
C. auris AR-384 = tested on: C. auris AR-384
C. auris AR-386 = tested on: C. auris AR-386
C. auris AR-387 = tested on: C. auris AR-387

Structure (SMILES) | growth (C. auris AR-384; 1 µM) | growth (C. auris AR-384; 10 µM) | growth (C. auris AR-386; 1 µM) | growth (C. auris AR-386; 10 µM) | growth (C. auris AR-387; 1 µM) | growth (C. auris AR-387; 10 µM)
CC(=O)OCC[N+](C)(C)C [Acetylcholine Chloride] | 0.71 | 1.49 | 0.88 | 1.23 | 0.74 | 0.81
O=c1[nH]c(=O)c2ccccc2o1 [Carsalam] | 0.92 | 0.97 | 0.96 | 1.1 | 0.75 | 0.98
C/C(=C\C(=O)OCCCCCCCCC(=O)O)C[C@@H]1OC[C@H](C[C@@H]2O[C@H]2[C@@H](C)[C@H](C)O)[C@@H](O)[C@H]1O [Mupirocin] | 0.95 | 0.97 | 0.68 | 0.97 | 0.89 | 0.82
CN(C)CCc1c[nH]c2ccc(CS(=O)(=O)N3CCCC3)cc12 [Almotriptan Malate] | 0.79 | 0.84 | 1.05 | 0.97 | 0.97 | 0.56
Clc1ccc(C(Cn2ccnc2)OCc2ccc(Sc3ccccc3)cc2)c(Cl)c1 (configuration not stated) [Fenticonazole Nitrate] | 0.86 | 0.38 | 1.26 | 0.79 | 0.45 | 0.21
Cn1cnc2c(F)c(Nc3ccc(Br)cc3F)c(C(=O)NOCCO)cc21 | 1.01 | 0.91 | 0.66 | 0.91 | 0.9 | 0.81
CCCCCCCCCCC[C@@H](C[C@@H]1OC(=O)[C@H]1CCCCCC)OC(=O)[C@H](CC(C)C)NC=O [Orlistat] | 0.96 | 0.54 | 0.62 | 1 | 0.92 | 0.72
Nc1c(Br)cc(Br)cc1CN[C@H]1CC[C@H](O)CC1 [Ambroxol HCl] | 1.26 | 0.91 | 0.73 | 0.89 | 1.01 | 1
CC(C)[C@H]1C(=O)N[C@@H](CCCNC(=N)N)C(=O)NCC(=O)N[C@@H](CC(=O)O)C(=O)N[C@H](Cc2ccccc2)C(=O)N1C [Cilengitide trifluoroacetate] | 0.94 | 0.89 | 0.99 | 0.92 | 0.92 | 0.98
CNC(=O)c1cc(Oc2ccc(NC(=O)Nc3ccc(Cl)c(C(F)(F)F)c3)cc2)ccn1 [Sorafenib Tosylate] | 1.36 | 0.82 | 0.76 | 0.8 | 0.88 | 0.92
Cc1c(-c2ccccc2)oc2c(C(=O)OCCN3CCCCC3)cccc2c1=O [Flavoxate HCl] | 0.57 | 0.8 | 0.66 | 0.97 | 0.81 | 0.61
CC1=NN(c2ccc(C)c(C)c2)C(=O)/C1=N\Nc1cccc(-c2cccc(C(=O)O)c2)c1O [Eltrombopag] | 1.35 | 1.38 | 0.94 | 1.45 | 1.04 | 1.37
COc1ccc2c3c1O[C@H]1C[C@@H](O)C=C[C@@]31CCN(C)C2 [Galanthamine HBr] | 0.53 | 0.51 | 0.64 | 0.75 | 0.72 | 0.6
Clc1ccc2c(c1)CCc1cccnc1C2=C1CCNCC1 [Desloratadine] | 0.77 | 0.88 | 1.09 | 0.68 | 0.67 | 0.73
O=C(O)P(=O)(O)O [Foscarnet Sodium] | 1.36 | 1.14 | 1.33 | 0.91 | 0.96 | 1.02
CCn1cc(C(=O)O)c(=O)c2ccc(C)nc21 [Nalidixic acid] | 0.87 | 0.74 | 0.92 | 0.72 | 1.15 | 0.85
Oc1ccc(C2CNCCc3c2cc(O)c(O)c3Cl)cc1 (configuration not stated) [Fenoldopam mesylate] | 1.05 | 1.51 | 1.04 | 1.3 | 1.28 | 1.37
CCC(=O)NS(=O)(=O)c1ccc(-c2c(-c3ccccc3)noc2C)cc1 [Parecoxib] | 0.8 | 0.71 | 0.69 | 0.87 | 0.68 | 0.89
CC1=NN(c2ccccc2)C(=O)C1 [Edaravone] | 1.12 | 0.71 | 0.93 | 1.2 | 0.92 | 1.19
Nc1nc(CC(=O)Nc2ccc(CCNC[C@H](O)c3ccccc3)cc2)cs1 [Mirabegron] | 0.76 | 0.92 | 0.87 | 0.67 | 0.66 | 1.11
N=C(NCCCCCCNC(=N)NC(=N)Nc1ccc(Cl)cc1)NC(=N)Nc1ccc(Cl)cc1 [Chlorhexidine 2HCl] | 0.98 | 0.94 | 1.19 | 1.05 | 1.22 | 1
CC1(C)O[C@@H]2C[C@H]3[C@@H]4C[C@H](F)C5=CC(=O)C=C[C@]5(C)[C@@]4(F)[C@@H](O)C[C@]3(C)[C@]2(C(=O)CO)O1 [Fluocinolone Acetonide] | 0.96 | 1.22 | 1.06 | 1.29 | 1.18 | 1.18
NS(=O)(=O)c1ccc(C(=O)O)cc1 [Carzenide] | 1.19 | 1.09 | 1.02 | 1.17 | 0.95 | 0.92
Oc1ccc(/C=C/c2cc(O)cc(O)c2)cc1 [Resveratrol] | 0.77 | 1.16 | 0.97 | 0.89 | 1 | 1.06

Given as a markdown table: part of the list above

| Structure (SMILES) | growth (C. auris AR-384; 1 µM) | growth (C. auris AR-384; 10 µM) | growth (C. auris AR-386; 1 µM) | growth (C. auris AR-386; 10 µM) | growth (C. auris AR-387; 1 µM) | growth (C. auris AR-387; 10 µM) |
| --- | --- | --- | --- | --- | --- | --- |
| CNC(=O)c1cc(Oc2ccc(NC(=O)Nc3ccc(Cl)c(C(F)(F)F)c3)cc2)ccn1 [Sorafenib Tosylate] | 1.36 | 0.82 | 0.76 | 0.8 | 0.88 | 0.92 |
| Cc1c(-c2ccccc2)oc2c(C(=O)OCCN3CCCCC3)cccc2c1=O [Flavoxate HCl] | 0.57 | 0.8 | 0.66 | 0.97 | 0.81 | 0.61 |

Further compounds.

Structure (SMILES) | growth (C. auris AR-384; 1 µM) | growth (C. auris AR-384; 10 µM) | growth (C. auris AR-386; 1 µM) | growth (C. auris AR-386; 10 µM) | growth (C. auris AR-387; 1 µM) | growth (C. auris AR-387; 10 µM)
CN(C)CCC(c1ccc(Br)cc1)c1ccccn1 (configuration not stated) [Brompheniramine hydrogen maleate] | 0.82 | 0.83 | 0.8 | 0.5 | 0.85 | 0.57
C[C@@H](NCCCc1cccc(C(F)(F)F)c1)c1cccc2ccccc12 [Cinacalcet HCl] | 0.89 | 0.51 | 0.64 | 0.66 | 1.04 | 0.56
CC(=O)CCCCn1c(=O)c2c(ncn2C)n(C)c1=O [Pentoxifylline] | 0.74 | 0.78 | 0.93 | 0.75 | 0.74 | 0.47
COc1ccc2[nH]c([S@@+]([O-])Cc3ncc(C)c(OC)c3C)nc2c1 [NEXIUM (esomeprazole magnesium)] | 0.6 | 1.05 | 1.17 | 0.79 | 0.89 | 0.8
CC(C)c1c(C(=O)Nc2ccccc2)c(-c2ccccc2)c(-c2ccc(F)cc2)n1CC[C@@H](O)C[C@@H](O)CC(=O)O [Atorvastatin Calcium] | 0.95 | 1.17 | 0.97 | 1.46 | 1.22 | 1.12
C[C@H](N[C@@H](CCc1ccccc1)C(=O)O)C(=O)N1CCC[C@H]1C(=O)O [Enalaprilat Dihydrate] | 0.73 | 1.16 | 0.96 | 0.84 | 0.83 | 1.01
CN1CCN(C2=Nc3cc(Cl)ccc3Nc3ccccc32)CC1 [Clozapine] | 0.93 | 1.1 | 0.97 | 0.73 | 0.88 | 0.76
CC(C)OC(=O)C(C)(C)Oc1ccc(C(=O)c2ccc(Cl)cc2)cc1 [Fenofibrate] | 1.04 | 1.11 | 0.62 | 1.06 | 0.71 | 0.74
Cc1cc(Nc2ncc(Cl)c(Nc3ccccc3S(=O)(=O)C(C)C)n2)c(OC(C)C)cc1C1CCNCC1 [Ceritinib (LDK378)] | 1.28 | 1.16 | 1.06 | 1 | 0.81 | 1.01
O=c1c(-n2ccnn2)c[nH]n1-c1cc(N2CCOCC2)ncn1 [Molidustat (BAY 85-3934)] | 0.77 | 0.74 | 0.88 | 0.55 | 0.6 | 0.66
Nc1nc2c(ncn2COC(CO)CO)c(=O)[nH]1 [Ganciclovir] | 0.83 | 0.87 | 0.71 | 0.71 | 0.7 | 0.6
CCn1c(=O)c(-c2cc[nH]n2)cc2c(C)nc(N)nc21 | 0.78 | 0.7 | 0.86 | 0.91 | 0.69 | 0.74
CC[C@H]1OC(=O)[C@H](C)[C@@H](O[C@H]2C[C@@](C)(OC)[C@@H](O)[C@H](C)O2)[C@H](C)[C@@H](O[C@@H]2O[C@H](C)C[C@H](N(C)C)[C@H]2O)[C@](C)(O)C[C@@H](C)C(=O)[C@H](C)[C@@H](O)[C@]1(C)O [Erythromycin] | 0.6 | 1.3 | 0.93 | 1.13 | 0.95 | 1.04
CC[C@H](C)C[C@H](C)CCCCCCCCC(=O)N[C@H]1C[C@@H](O)[C@@H](NCCN)NC(=O)[C@@H]2[C@@H](O)CCN2C(=O)[C@H]([C@H](O)CCN)NC(=O)[C@H]([C@H](O)[C@@H](O)c2ccc(O)cc2)NC(=O)[C@@H]2C[C@@H](O)CN2C(=O)[C@H]([C@@H](C)O)NC1=O [Caspofungin Acetate] | 0.78 | 0.87 | 0.44 | 0.75 | 0.56 | 0.25
CCCCC[C@H](O)/C=C/[C@H]1[C@H](O)CC(=O)[C@@H]1CCCCCCC(=O)O [Alprostadil] | 0.96 | 0.82 | 0.7 | 0.69 | 0.68 | 0.92
CNC(=O)c1cc(Oc2ccc(NC(=O)Nc3ccc(Cl)c(C(F)(F)F)c3)c(F)c2)ccn1 [Regorafenib (BAY 73-4506)] | 1.01 | 1.38 | 1.15 | 0.58 | 0.88 | 0.78
CCS(=O)(=O)N1CCN(c2ccc(Nc3ncc(C(N)=O)c(NC4CC4)n3)cc2)CC1 | 0.89 | 0.89 | 0.9 | 0.95 | 0.61 | 0.87
N=C(N)Nc1ccc(C(=O)Oc2ccc3cc(C(=N)N)ccc3c2)cc1 [Nafamostat Mesylate] | 1.34 | 0.8 | 1 | 1.2 | 1.1 | 0.9
CCCCc1nc2cc(/C=C/C(=O)NO)ccc2n1CCN(CC)CC [Pracinostat (SB939)] | 1.09 | 0.89 | 0.63 | 1.29 | 0.84 | 1.23
CCC(C)(C)c1ccc(CC(C)CN2C[C@@H](C)O[C@@H](C)C2)cc1 (some centres not stated) [Amorolfine HCl] | 0.7 | 0.81 | 0.77 | 0.39 | 0.59 | 0.36
Nc1nc2ccc(OC(F)(F)F)cc2s1 [Riluzole] | 0.97 | 1.06 | 1.3 | 1.16 | 0.87 | 0.81
CNC[C@H](O)c1cccc(O)c1 [Phenylephrine HCl] | 1.03 | 1.06 | 0.96 | 1.78 | 1.39 | 1.48
C#C[C@]1(O)CC[C@H]2[C@@H]3CCC4=CCCC[C@@H]4[C@H]3C(=C)C[C@@]21CC [Desogestrel] | 0.85 | 0.91 | 0.9 | 0.81 | 0.99 | 0.78

From the supplement of paper PMC10470496
